Here are results for one molecule from article PMC8722053.

By UniProt entry, the sequences of proteins in these tests, tags left out.
UniProt B2RWS6: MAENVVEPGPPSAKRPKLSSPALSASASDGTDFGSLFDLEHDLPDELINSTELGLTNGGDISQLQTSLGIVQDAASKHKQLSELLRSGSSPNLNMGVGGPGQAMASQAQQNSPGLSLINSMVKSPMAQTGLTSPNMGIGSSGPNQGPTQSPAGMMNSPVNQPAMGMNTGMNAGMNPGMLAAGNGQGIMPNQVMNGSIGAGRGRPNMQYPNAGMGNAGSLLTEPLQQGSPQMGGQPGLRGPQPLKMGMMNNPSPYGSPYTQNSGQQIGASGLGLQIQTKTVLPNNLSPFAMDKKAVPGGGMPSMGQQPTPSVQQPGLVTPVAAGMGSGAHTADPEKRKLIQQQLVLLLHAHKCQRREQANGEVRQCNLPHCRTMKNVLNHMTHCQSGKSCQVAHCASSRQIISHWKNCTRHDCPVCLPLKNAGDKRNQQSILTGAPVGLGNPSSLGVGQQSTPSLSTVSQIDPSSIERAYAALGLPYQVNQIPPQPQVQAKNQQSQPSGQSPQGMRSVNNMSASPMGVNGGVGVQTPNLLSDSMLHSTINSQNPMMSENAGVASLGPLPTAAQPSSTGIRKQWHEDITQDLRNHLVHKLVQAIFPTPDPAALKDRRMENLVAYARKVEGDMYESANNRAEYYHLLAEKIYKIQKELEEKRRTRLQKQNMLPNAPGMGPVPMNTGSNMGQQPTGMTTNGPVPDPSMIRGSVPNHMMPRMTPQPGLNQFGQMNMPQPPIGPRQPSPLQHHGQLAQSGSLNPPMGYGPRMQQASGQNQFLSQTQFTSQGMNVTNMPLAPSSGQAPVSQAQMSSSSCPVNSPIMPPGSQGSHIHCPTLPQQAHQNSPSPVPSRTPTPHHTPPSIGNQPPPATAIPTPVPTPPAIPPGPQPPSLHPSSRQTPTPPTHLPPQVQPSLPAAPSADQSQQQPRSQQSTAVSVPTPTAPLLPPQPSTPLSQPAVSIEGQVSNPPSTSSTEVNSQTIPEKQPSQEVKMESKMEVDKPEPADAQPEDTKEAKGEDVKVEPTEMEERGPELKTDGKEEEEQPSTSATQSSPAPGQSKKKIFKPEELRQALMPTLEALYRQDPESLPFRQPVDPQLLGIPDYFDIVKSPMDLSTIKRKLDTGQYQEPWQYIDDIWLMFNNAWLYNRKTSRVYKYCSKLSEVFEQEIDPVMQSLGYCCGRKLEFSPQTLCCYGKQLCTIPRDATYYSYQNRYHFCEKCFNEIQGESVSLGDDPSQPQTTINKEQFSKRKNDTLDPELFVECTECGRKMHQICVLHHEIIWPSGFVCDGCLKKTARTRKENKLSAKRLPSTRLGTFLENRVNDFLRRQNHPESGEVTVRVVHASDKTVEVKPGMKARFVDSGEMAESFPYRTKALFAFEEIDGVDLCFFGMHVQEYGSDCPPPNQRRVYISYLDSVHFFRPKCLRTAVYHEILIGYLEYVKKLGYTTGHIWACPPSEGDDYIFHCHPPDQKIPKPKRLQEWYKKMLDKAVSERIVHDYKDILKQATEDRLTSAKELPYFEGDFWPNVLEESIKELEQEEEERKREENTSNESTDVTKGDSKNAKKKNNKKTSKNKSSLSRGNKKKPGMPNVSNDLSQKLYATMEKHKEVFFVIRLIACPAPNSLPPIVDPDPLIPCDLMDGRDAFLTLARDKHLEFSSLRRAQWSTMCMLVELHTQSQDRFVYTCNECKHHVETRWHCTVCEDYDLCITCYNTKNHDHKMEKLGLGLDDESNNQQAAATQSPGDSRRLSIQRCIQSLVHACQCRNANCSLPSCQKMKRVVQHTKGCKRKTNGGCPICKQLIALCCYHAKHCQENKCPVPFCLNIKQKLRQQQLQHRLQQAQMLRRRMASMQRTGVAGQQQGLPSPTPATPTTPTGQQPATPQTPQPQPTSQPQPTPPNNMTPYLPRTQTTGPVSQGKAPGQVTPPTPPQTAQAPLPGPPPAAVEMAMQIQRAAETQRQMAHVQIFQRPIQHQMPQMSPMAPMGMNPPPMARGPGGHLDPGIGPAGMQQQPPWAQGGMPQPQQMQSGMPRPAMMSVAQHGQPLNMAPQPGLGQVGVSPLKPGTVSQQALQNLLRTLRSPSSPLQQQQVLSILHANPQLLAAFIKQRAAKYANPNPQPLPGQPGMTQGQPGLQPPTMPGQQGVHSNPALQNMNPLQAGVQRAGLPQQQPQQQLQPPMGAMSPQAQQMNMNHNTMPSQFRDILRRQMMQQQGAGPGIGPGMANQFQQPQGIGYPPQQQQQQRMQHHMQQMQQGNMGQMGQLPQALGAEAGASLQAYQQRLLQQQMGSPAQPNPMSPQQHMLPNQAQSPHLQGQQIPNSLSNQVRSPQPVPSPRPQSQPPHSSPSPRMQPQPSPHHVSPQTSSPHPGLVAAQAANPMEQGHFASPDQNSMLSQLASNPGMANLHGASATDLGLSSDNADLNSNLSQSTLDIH

These are yes or no findings as the source states them, for the method shown. Binding seen in cells or lysates may run through a third protein. Some binding calls cover weakened binding; strength is not graded here.

The target of the assay is p300 (mouse (endogenous in liver)) (UniProt B2RWS6). Description: co-IP; mouse liver tissue extract, pre-cleared with protein A/G-agarose; p300 antibody or nonimmune IgG (2 ug) overnight at 4 C; six washes with cold lysis buffer; immunoblot; wild-type littermates and liver-specific Pes1 knockout mice.

B1: Sterol regulatory element binding protein 1c (protein, UniProt Q9WTN3-3 1-1110)
chain: MDCTFEDMLQLINNQDSDFPGLFDAPYAGGETGDTGPSSPGANSPESFSSASLASSLEAFLGGPKVTPAPLSPPPSAPAALKMYPSVSPFSPGPGIKEEPVPLTILQPAAPQPSPGTLLPPSFPAPPVQLSPAPVLGYSSLPSGFSGTLPGNTQQPPSSLPLAPAPGVLPTPALHTQVQSLASQQPLPASAAPRTNTVTSQVQQVPVVLQPHFIKADSLLLTAVKTDAGATVKTAGISTLAPGTAVQAGPLQTLVSGGTILATVPLVVDTDKLPIHRLAAGSKALGSAQSRGEKRTAHNAIEKRYRSSINDKIVELKDLVVGTEAKLNKSAVLRKAIDYIRFLQHSNQKLKQENLTLRSAHKSKSLKDLVSACGSGGGTDVSMEGMKPEVVETLTPPPSDAGSPSQSSPLSFGSRASSSGGSDSEPDSPAFEDSQVKAQRLPSHSRGMLDRSRLALCVLAFLCLTCNPLASLFGWGILTPSDATGTHRSSGRSMLEAESRDGSNWTQWLLPPLVWLANGLLVLACLALLFVYGEPVTRPHSGPAVHFWRHRKQADLDLARGDFPQAAQQLWLALQALGRPLPTSNLDLACSLLWNLIRHLLQRLWVGRWLAGQAGGLLRDRGLRKDARASARDAAVVYHKLHQLHAMGKYTGGHLAASNLALSALNLAECAGDAISMATLAEIYVAAALRVKTSLPRALHFLTRFFLSSARQACLAQSGSVPLAMQWLCHPVGHRFFVDGDWAVHGAPPESLYSVAGNPVDPLAQVTRLFREHLLERALNCIAQPSPGAADGDREFSDALGYLQLLNSCSDAAGAPACSFSVSSSMAATTGPDPVAKWWASLTAVVIHWLRRDEEAAERLYPLVEHIPQVLQDTERPLPRAALYSFKAARALLDHRKVESSPASLAICEKASGYLRDSLASTPTGSSIDKAMQLLLCDLLLVARTSLWQRQQSPASVQVAHGTSNGPQASALELRGFQHDLSSLRRLAQSFRPAMRRVFLHEATARLMAGASPARTHQLLDRSLRRRAGSSGKGGTTAELEPRPTWREHTEALLLASCYLPPAFLSAPGQRMSMLAEAARTVEKLGDHRLLLDCQQMLLRLGGGTTVTSS
With B1, the binding result is given as “binds”.
